# Primary screen of a compound library

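Phenotypic screen: M. tuberculosis growth, cholesterol and DPPC medium, 4 days; the read-out is not stated. Tested at 50 µM. The record gives no direction; compounds that gave an IC50 in retests scored well above the rest, so higher reads as more growth inhibition. About 69,000 compounds were tested under these conditions; 0.54% (about 370) showed 50% or more at least once.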

Results are given as percent effect. How 0% and 100% were set is not recorded. Most values in the screen are low, and negative values occur. This is an unselected part of the compounds tested. Two or more numbers in one place are separate tests of the same structure; such repeats can differ widely.

SMILES | effect
O=C(C1CCOCC1)N1CCc2ncnc(-c3ccccc3)c2CC1 | -6.632
CCn1ncc2c1CN(C(=O)c1ccc3c(c1)OCO3)CC2COC (stereo not drawn) | -1.425
CCCNC(=O)c1cc(C2CCCN(Cc3ccccn3)C2)no1 (stereo not drawn) | -8.451
Cc1cccc(CN2CCc3cc(C(=O)O)c(N(C)C)nc3CC2)n1.O=C(O)C(F)(F)F.O=C(O)C(F)(F)F | -8.597
O=C(N[C@H]1COC[C@@H]1N1CCCC1)c1c[nH]nc1C1CCCCC1 | 14.73
CC(Cc1ccccc1F)C(=O)Nc1ccc(OCCC(N)=O)cc1 (stereo not drawn) | -13.09
COCCc1noc(CN2CCCC2Cn2nc(C)nc2C)n1 (stereo not drawn) | -57.77
CCc1noc(CNc2cc(F)ccc2OCC2CCCO2)n1 (stereo not drawn) | 17.22
O=C(Nc1ccccc1)c1ccc(NCc2ccncc2)nn1 | 23.46
CSc1ccc(C(CC(=O)O)NC(=O)c2cc(C)on2)cc1 (stereo not drawn) | -0.362
Cc1cnn(CCNCC(=O)NCC2(c3ccccc3)CCC2)c1 | -17
CCc1cc(=O)[nH]c2nnc(SCC(=O)NC(C)C)n12 | -19.04
CNS(=O)(=O)CCCN1CCCN(Cc2ccccc2)CC1C (stereo not drawn) | -7.359
Cc1cc(C)n(CC2CN(Cc3ccc(C(N)=O)cc3)CCO2)n1 (stereo not drawn) | -14.99
COc1ccc([C@@H](C)n2ccnc2-c2cc3n(n2)CCCNC3)cc1 | -48.57
CN(C)[C@@H]1CO[C@H](CNC(=O)C2CCCC2)[C@H]1O | -28.43
CSCc1ccc(CNCCN2CCOCC2)o1 | -2.796
O=C(O)C(F)(F)F.O=C(O)C(F)(F)F.O=C(O)C(F)(F)F.[H][C@@]12CN(Cc3cccnc3)C[C@]1([H])CN(S(=O)(=O)c1cn(C)cn1)C2 | -4.022
[H][C@]12CC[C@@]3(N=C(CC)N(CCOC)C3=O)[C@@]1([H])CN(C(=O)NCC(C)C)C2 | 8.402
O=C(O)C(F)(F)F.O=C(O)C(F)(F)F.[H][C@@]12COC[C@]1(COCC(=O)N(C)C)CN(Cc1cccc(C)n1)C2 | 17.14
Cc1nc2n(n1)CC(Nc1nc(C(F)(F)F)nc3ccccc13)CC2 (stereo not drawn) | 8.6
O=C(NC1CCCc2nc(N3CCOCC3)ncc21)C1CCCCC1 (stereo not drawn) | -12.13
CC(C)CC(=O)N1Cc2ccccc2CC1C(=O)Nc1nncs1 (stereo not drawn) | -0.8995
CN(C)S(=O)(=O)N1CCC(c2ccncn2)CC1 | -3.047
CC1c2ncc(COCC3CC3)n2CCN1C(=O)c1ccnnc1 (stereo not drawn) | -11.12
Cc1nc(-c2cccc(C(=O)N(C)C)c2)cs1 | 18.62
CC(OCC(F)(F)F)C(=O)N1CCCC1 (stereo not drawn) | -13.31
CC(C)c1n[nH]c(C(=O)NC(C)c2ccncc2)c1Br (stereo not drawn) | -14.65
CCc1cc(C(=O)N2CCCC(Cc3ccc(NC)nn3)C2)on1 (stereo not drawn) | -44.51
O=C(O)C(F)(F)F.[H][C@@]12C[C@@H](Oc3cccc(F)c3)CN1CCN(C(=O)c1ccnnc1)C2 | -13.35
Cc1nnc(CN(C)CCCOc2ccc(Cl)cc2)o1 | 13.41
CN(C)C[C@@H]1CN(C2CCN(c3ccccc3Cl)CC2)C[C@@H]1CO | -3.063
COCc1cnc2n1CCN(C(=O)c1cc3ccccc3o1)C2C (stereo not drawn) | -34.96
c1coc(-c2nc(CN3CCn4c(nnc4C4CC4)C3)cs2)c1 | -5.657
CC(C)NC(=O)N1CCN(CC2CC2)CC2(CC(=O)N(C)C2)C1.O=C(O)C(F)(F)F (stereo not drawn) | 5.338 & -8.884
COc1nc2c(cc1C(=O)N1CC[C@H](CO)[C@@H](O)C1)CCC2 | 1.126
CC(C)CN1Cc2c(C(=O)NC3CC3)ncn2-c2ccccc2S1(=O)=O | 1.178
Cn1cc(CC2CCN(C(=O)NCc3csc(C4CC4)n3)C2)cn1 (stereo not drawn) | -15.32
[H][C@@]12CCN(C(=O)NC(C)C)[C@@]1([H])CC(=O)N2Cc1cccnc1 | -2.634
COc1ccc2c(c1)s/c(=N\C(=O)CSCC(=O)Nc1nccs1)n2C | -28.24
OCCNc1cc(N2CCC(n3cc(C4CCCC4)nn3)CC2)ncn1 | 6.815 & -9.846
CC(C)Nc1ccnc(N2Cc3cnc(C(C)(C)C)nc3C2)n1 | 5.518
Cc1ccc(-c2ccnc(NC(C)c3c(C)n[nH]c3C)n2)c(C)n1 (stereo not drawn) | -16.27 & -4.568
CCn1ncnc1C1CC(=O)NCc2nc3ccccn3c21 (stereo not drawn) | -0.4181
COCCCNC(=O)NCc1ccc(N2CCOC(C)C2)nc1 (stereo not drawn) | -27.82
Cl.Cl.c1c(CN2CCCCC2)nc2n1CCNC2 | -32.53
CC1CN(C(=O)c2cnn(-c3ccccn3)c2C(C)C)CC(C)(C)O1 (stereo not drawn) | -0.07885
C[C@H]1CN(C(=O)c2cccc(F)c2Cl)CCN1S(C)(=O)=O | -5.04
O=C(Cc1ccsc1)N1CCc2ccc(=O)n(CC3CC3)c2CC1 | -4.292
CC1CCCN(C(=O)C2CCN(c3snc4ccccc34)CC2)C1 (stereo not drawn) | 14.25
Cc1cc(C)nc(NC(=O)NCCCSc2nncn2C)n1 | -10.57
COc1cc(-c2n[nH]c(CO)n2)cc(OC)c1OC | -39.63
CC(=O)Nc1nc(CN2CCCC2Cn2cc(C)cn2)cs1 (stereo not drawn) | -1.566
O=C(N1CCCC1)N1CCC(c2nccn2Cc2cscn2)CC1 | -12.46 & -3.85
COc1ccc(NC2(C(=O)N3CCn4cncc4C3)CCCC2)cc1 | 0.1534
CN(C)C(=O)CN1CCC2(CCN(C(=O)N3CCCC3)CC2)C1=O | 4.802
CN(C)C(=O)N1CC[C@@H](c2ccc3ccccc3c2)[C@H](O)C1 | -22.52
O=C(O)C(F)(F)F.O=C(O)C(F)(F)F.O=C(O)C(F)(F)F.[H][C@@]12CN(Cc3ccc(OC)cc3)C[C@]1([H])OCCN2CCN(C)C | -6.553
CC(C)NC(=O)N1CCCC2(CCCCN2)C1 (stereo not drawn) | 6.905
Cn1cc(N2CCC3(CCN(Cc4cccnc4)C3)C2=O)cn1.O=C(O)C(F)(F)F.O=C(O)C(F)(F)F (stereo not drawn) | -20.71
CS(=O)(=O)c1ccc(CC(=O)N2CCN3CCNC(=O)C3C2)cc1 (stereo not drawn) | 5.014
COc1cccc(N2CCN(CCC(=O)NC3CCCC3)CC2)c1 | -12.02
CN1CCOC(CNCc2ccccc2OCc2ccccn2)C1 (stereo not drawn) | 2.173
Cc1cc(C)n(C2CCCN(C(=O)CN(C)C3CC3)C2)n1 (stereo not drawn) | -1.409 & 12.36
CCCS(=O)(=O)N1CCN(CCCO)CC1 | -20.96
CNC(=O)COc1ccc(-c2ccccc2)nc1 | -10.52
O=C(NCc1cc[nH]n1)N(CCCO)C1CCc2ccccc21 (stereo not drawn) | 0.2653
CNCc1ccc(Oc2cncc(C)n2)cc1 | -9.57

The first 6 entries again:

With O=C(C1CCOCC1)N1CCc2ncnc(-c3ccccc3)c2CC1 the screen gave -6.632%.
With CCn1ncc2c1CN(C(=O)c1ccc3c(c1)OCO3)CC2COC (stereo not drawn) the screen gave -1.425%.
With CCCNC(=O)c1cc(C2CCCN(Cc3ccccn3)C2)no1 (stereo not drawn) the screen gave -8.451%.
With Cc1cccc(CN2CCc3cc(C(=O)O)c(N(C)C)nc3CC2)n1.O=C(O)C(F)(F)F.O=C(O)C(F)(F)F the screen gave -8.597%.
With O=C(N[C@H]1COC[C@@H]1N1CCCC1)c1c[nH]nc1C1CCCCC1 the screen gave 14.73%.
With CC(Cc1ccccc1F)C(=O)Nc1ccc(OCCC(N)=O)cc1 (stereo not drawn) the screen gave -13.09%.

Source: ChEMBL document CHEMBL3988442, “University of Dundee, Small-Polar-MMV Screening Library” (2021).